The supplement of paper PMC10849652
This is one part of the list.

The chains behind the UniProt entries cited, without tags or fusion partners. Where a name states a change or a piece, a line headed by the entry shows the natural chain unless it says otherwise.
UniProt A2RRP1: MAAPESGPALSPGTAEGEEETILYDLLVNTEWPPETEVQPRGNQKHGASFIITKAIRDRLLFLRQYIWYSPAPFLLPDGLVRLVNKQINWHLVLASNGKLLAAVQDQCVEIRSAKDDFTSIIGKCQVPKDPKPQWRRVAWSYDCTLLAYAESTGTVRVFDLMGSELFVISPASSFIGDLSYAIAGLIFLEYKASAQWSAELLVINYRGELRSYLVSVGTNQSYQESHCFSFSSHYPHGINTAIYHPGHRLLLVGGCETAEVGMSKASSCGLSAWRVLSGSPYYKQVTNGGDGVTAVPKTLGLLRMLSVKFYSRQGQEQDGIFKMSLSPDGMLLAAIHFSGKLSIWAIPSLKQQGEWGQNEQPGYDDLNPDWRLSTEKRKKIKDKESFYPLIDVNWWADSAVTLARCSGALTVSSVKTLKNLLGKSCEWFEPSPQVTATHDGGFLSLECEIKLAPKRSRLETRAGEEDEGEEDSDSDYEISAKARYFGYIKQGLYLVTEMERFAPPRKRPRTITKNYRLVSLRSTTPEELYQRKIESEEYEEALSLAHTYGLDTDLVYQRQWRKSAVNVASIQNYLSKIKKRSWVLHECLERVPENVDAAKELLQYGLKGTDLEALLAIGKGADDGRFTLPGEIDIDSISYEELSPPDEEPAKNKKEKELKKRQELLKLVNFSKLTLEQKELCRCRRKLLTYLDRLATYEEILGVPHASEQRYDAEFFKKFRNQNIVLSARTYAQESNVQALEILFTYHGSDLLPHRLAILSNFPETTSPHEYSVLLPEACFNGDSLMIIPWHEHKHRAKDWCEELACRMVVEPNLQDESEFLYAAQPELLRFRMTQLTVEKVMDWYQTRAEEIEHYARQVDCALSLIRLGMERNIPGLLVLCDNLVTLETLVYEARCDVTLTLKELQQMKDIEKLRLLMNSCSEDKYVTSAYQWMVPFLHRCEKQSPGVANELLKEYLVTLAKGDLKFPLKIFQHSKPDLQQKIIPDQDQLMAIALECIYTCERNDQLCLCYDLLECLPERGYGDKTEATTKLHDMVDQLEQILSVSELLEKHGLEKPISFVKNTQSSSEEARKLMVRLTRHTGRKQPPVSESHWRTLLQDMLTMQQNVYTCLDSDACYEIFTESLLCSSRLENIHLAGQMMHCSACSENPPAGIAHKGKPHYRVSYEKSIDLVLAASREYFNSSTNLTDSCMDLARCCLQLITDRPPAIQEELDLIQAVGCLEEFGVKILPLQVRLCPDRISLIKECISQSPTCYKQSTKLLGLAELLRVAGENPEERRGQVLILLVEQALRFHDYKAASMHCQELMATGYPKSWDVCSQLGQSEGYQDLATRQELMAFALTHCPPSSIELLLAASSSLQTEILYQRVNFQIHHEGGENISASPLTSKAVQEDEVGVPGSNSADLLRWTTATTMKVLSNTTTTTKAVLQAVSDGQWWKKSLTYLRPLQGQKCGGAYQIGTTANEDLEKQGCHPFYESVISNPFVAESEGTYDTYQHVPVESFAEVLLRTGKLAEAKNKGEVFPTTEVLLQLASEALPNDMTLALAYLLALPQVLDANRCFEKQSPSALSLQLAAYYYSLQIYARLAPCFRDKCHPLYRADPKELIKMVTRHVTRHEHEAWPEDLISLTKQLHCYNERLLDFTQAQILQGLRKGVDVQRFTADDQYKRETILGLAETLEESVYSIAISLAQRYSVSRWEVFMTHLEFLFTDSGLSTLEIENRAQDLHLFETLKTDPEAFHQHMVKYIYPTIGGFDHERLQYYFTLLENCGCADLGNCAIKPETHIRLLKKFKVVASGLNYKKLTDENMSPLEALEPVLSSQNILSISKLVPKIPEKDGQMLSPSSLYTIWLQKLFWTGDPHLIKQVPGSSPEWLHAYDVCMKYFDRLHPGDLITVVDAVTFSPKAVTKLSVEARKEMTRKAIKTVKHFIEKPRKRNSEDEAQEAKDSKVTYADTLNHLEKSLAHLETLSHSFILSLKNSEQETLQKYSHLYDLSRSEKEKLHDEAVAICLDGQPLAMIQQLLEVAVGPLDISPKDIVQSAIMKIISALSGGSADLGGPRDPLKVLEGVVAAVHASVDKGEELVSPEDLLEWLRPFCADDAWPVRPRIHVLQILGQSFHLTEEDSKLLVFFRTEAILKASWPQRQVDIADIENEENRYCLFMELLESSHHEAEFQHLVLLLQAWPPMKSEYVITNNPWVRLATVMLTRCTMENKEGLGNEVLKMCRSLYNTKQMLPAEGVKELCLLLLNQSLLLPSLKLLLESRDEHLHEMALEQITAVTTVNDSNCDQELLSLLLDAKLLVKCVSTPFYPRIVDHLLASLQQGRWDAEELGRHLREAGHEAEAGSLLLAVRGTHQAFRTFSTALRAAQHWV
UniProt O95182, whole entry, looked up: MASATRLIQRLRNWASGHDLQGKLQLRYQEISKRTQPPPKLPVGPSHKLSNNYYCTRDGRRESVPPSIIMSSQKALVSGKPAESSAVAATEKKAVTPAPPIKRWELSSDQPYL
UniProt O75306, whole entry, looked up: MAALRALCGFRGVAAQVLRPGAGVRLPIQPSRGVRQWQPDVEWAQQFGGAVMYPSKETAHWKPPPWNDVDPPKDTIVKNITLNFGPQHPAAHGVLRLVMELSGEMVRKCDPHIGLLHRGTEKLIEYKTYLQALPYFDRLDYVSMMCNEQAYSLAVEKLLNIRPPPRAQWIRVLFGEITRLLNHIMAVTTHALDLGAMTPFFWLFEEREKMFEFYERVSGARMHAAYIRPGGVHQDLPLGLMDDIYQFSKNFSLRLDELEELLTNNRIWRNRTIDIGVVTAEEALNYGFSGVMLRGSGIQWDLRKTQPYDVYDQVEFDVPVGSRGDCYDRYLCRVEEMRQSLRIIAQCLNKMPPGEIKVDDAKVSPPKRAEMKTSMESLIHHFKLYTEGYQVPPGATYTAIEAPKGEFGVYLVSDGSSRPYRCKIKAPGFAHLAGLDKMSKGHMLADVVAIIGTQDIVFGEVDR
UniProt O00217, whole entry, looked up: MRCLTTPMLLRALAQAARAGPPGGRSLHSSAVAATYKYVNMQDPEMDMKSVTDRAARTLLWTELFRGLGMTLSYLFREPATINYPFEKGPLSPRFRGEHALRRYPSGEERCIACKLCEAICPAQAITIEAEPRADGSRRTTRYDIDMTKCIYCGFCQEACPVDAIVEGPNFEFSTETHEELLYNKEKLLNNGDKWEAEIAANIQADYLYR
UniProt Q9BXJ9: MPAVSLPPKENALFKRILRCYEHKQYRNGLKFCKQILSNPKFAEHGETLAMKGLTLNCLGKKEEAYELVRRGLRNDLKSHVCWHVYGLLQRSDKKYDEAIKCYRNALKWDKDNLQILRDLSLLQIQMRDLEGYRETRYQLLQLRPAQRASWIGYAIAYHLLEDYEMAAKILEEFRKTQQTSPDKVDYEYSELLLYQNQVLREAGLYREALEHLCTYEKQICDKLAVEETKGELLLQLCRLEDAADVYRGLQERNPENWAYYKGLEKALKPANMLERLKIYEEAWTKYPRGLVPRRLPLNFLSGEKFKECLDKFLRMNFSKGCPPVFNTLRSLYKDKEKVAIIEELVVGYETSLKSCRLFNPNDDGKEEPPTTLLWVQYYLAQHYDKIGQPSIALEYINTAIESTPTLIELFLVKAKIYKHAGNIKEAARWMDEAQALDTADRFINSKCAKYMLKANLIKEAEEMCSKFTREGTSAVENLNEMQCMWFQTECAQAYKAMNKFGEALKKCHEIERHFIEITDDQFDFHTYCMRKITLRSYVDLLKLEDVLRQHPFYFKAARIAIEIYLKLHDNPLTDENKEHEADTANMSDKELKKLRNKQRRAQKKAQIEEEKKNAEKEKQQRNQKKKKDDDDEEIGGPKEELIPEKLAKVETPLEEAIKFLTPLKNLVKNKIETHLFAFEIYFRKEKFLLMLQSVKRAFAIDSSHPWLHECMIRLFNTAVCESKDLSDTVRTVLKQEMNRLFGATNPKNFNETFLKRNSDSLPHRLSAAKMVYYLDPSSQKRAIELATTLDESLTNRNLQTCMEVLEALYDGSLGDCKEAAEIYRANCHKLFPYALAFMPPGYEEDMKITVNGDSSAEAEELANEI
UniProt P56181: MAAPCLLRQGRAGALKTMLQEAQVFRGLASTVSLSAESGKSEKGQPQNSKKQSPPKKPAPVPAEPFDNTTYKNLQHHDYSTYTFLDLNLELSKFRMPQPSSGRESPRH
UniProt Q9GZZ1: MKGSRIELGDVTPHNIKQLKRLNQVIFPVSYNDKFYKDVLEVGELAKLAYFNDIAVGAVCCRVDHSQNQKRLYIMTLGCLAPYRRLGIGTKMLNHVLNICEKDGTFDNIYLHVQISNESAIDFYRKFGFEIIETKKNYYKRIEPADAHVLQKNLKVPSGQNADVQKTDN
UniProt O75113: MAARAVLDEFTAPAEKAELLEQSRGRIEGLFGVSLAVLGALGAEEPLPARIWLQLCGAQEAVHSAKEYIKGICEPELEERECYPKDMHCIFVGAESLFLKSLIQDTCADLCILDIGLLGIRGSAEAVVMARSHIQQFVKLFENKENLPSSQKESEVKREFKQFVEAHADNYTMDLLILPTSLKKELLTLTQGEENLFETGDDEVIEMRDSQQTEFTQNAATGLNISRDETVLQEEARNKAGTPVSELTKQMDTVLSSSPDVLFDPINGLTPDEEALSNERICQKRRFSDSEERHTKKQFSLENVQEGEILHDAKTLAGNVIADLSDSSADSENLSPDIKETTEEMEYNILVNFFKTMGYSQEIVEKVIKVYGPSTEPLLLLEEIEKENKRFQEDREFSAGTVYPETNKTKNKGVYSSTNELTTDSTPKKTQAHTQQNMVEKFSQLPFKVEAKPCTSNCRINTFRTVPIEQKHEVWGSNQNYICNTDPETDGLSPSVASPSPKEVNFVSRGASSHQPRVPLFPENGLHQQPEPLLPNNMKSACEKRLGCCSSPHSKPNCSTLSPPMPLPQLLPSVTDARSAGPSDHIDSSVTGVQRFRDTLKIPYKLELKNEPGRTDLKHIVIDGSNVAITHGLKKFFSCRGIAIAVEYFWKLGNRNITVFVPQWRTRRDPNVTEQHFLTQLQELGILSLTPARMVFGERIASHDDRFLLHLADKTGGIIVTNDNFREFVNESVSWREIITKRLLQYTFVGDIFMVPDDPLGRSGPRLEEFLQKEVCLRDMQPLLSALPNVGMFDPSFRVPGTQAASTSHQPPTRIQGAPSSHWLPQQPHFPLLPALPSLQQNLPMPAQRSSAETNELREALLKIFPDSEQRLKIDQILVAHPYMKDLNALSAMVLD
UniProt Q15021, whole entry, looked up: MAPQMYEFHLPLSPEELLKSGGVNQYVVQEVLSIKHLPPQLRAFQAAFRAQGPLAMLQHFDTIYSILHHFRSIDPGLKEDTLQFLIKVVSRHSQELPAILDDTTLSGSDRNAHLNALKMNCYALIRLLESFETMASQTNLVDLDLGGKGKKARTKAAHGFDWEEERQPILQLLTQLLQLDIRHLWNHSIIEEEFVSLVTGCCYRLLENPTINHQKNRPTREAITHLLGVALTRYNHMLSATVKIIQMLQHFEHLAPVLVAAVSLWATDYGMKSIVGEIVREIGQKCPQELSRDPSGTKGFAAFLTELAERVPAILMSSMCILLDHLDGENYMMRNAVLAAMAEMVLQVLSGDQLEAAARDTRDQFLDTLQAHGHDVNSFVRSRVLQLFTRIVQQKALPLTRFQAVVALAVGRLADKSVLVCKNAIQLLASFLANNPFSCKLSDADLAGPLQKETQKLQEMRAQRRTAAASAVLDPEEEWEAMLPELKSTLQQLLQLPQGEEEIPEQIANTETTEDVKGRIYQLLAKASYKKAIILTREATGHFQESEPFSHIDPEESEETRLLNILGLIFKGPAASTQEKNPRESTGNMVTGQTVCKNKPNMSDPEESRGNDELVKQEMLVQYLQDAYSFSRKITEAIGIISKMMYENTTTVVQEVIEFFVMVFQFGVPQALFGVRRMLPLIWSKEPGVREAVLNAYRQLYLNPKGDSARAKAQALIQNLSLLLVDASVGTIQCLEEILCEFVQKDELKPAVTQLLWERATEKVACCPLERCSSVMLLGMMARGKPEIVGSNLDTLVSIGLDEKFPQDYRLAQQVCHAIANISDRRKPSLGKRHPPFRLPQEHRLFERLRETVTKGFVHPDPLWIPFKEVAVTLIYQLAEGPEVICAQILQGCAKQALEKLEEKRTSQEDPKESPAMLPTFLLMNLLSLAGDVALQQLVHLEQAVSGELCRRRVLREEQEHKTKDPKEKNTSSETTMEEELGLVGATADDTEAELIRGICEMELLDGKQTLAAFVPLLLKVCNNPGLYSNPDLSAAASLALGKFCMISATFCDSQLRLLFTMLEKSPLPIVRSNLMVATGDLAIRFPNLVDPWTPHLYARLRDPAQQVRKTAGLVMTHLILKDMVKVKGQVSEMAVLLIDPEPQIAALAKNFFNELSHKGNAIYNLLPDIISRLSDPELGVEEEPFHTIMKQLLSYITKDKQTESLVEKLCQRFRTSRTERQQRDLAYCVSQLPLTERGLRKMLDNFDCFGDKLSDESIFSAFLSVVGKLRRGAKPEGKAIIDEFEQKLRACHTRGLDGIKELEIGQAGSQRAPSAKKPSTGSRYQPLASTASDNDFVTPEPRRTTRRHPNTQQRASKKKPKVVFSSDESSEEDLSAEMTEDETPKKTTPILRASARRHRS

Tests used:
Test in all cases: log2 fold change, soluble protein after heating vs DMSO (PISA); higher = thermal stabilisation; K562 cells, 10 uM, 30 min; active = over 0.2 and 3.5 SD of the protein, either way, in both replicates (recomputed)
[1] = compound: CC1=C(C=C(C=C1)NC(=O)C2=CC(=CC=C2)C(C)(C)C#N)NC3=CC4=C(C=C3)N=CN(C4=O)C
Outline: (§1)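 K562 cells at 2×10^6 cells/mL were exposed to 10 μM compound for 30 min, then aliquots were heated for 3 min across 48°C-58°C, pooled, and extracted in PBS containing 0.5% NP-40 at 4°C. The supernatant after 21,000xg for 90 min was taken as soluble protein and measured by TMTpro 16plex LC-MS/MS with channel sums equalised. Thermal stability is reported relative to control samples, with values from duplicates. Fold changes are given on a log2 scale.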

[2] = compound: CC1=C(C=C(C=C1)NC(=O)C2=CC(=CC=C2)N(C)C)NC(=O)C3=CC=C(C=C3)O
Outline: as §1

[3] = compound: CC1=CC=C(C=C1)SC2=C3C=C(SC3=CN=C2)C(=O)N
Outline: as §1

[4] = compound: CC1=NC(=CC=C1)C2=C(N=C(N2)C(C)(C)C)C3=CC4=NC=CN=C4C=C3
Outline: as §1

Nexturastat A = compound: CCCCN(Cc1ccc(C(=O)NO)cc1)C(=O)Nc1ccccc1 [Nexturastat A]
Outline: as §1

vemurafenib = compound: CCCS(=O)(=O)Nc1ccc(F)c(C(=O)c2c[nH]c3ncc(-c4ccc(Cl)cc4)cc23)c1F [vemurafenib]
Outline: as §1

[5] = compound: CCCS(=O)(=O)Nc1ccc(F)c(C(=O)c2c[nH]c3ncc(Cl)cc23)c1F
Outline: as §1

[6] = compound: CCCc1cc(C)[nH]c(=O)c1CNC(=O)c1cc(-c2ccnc(N3CCN(C)CC3)c2)cc2c1cnn2C(C)C
Outline: as §1

givinostat = compound: CCN(CC)Cc1ccc2cc(COC(=O)Nc3ccc(C(=O)NO)cc3)ccc2c1 [givinostat]
Outline: as §1

barasertib = compound: CCN(CCCOc1ccc2c(Nc3cc(CC(=O)Nc4cccc(F)c4)[nH]n3)ncnc2c1)CCOP(=O)(O)O [barasertib]
Outline: as §1

[7] = compound: CC[C@@H]1C(=O)N(C)c2cnc(Nc3ccc(C(=O)NC4CCN(C)CC4)cc3OC)nc2N1C1CCCC1
Outline: as §1

volasertib = compound: CC[C@@H]1C(=O)N(C)c2cnc(Nc3ccc(C(=O)N[C@H]4CC[C@H](N5CCN(CC6CC6)CC5)CC4)cc3OC)nc2N1C(C)C [volasertib]
Outline: as §1

[8] = compound: CC[C@H](C)N1C=C(C2=C(C=C(C=C21)C3=CN=C(C=C3)N4CCNCC4)C(=O)NCC5=C(C=C(NC5=O)C)C)C
Outline: as §1

epoxomicin = compound: CC[C@H](C)[C@@H](C(=O)N[C@@H]([C@@H](C)O)C(=O)N[C@@H](CC(C)C)C(=O)[C@]1(CO1)C)NC(=O)[C@H]([C@@H](C)CC)N(C)C(=O)C [epoxomicin]
Outline: as §1

[9] = compound: CCn1cc(-c2ccnc3[nH]c(-c4cccc(CN(C)C)c4)cc23)c(-c2ccc(NC(=O)N(C)C)cc2)n1
Outline: as §1

[10] = compound: CN(C)CC(=O)Nc1ccc2[nH]c(=O)c3ccccc3c2c1
Outline: as §1

[11] = compound: CN1C2=C(C3=C1C(=O)N(N=C3)CC4=CC(=CC=C4)N)SC(=C2)S(=O)C
Outline: as §1

[12] = compound: CN1CCC(CNc2ccc3ncc(-c4cccc(OC(F)(F)F)c4)n3n2)CC1
Outline: as §1

[13] = compound: CCn1c(C(=O)N(C2CC2)C2CC2)cc2c3c(ncn3C)c(Nc3cc(C)n(C)n3)nc21
Outline: as §1

rosiglitazone = compound: CN(CCOC1=CC=C(C=C1)C[C@H]2C(=O)NC(=O)S2)C3=CC=CC=N3 (racemic) [rosiglitazone]
Outline: as §1

Row | Target | log2 fold change [1] | log2 fold change [2] | log2 fold change [3] | log2 fold change [4] | log2 fold change (Nexturastat A) | log2 fold change (vemurafenib) | log2 fold change [5] | log2 fold change [6] | log2 fold change (givinostat) | log2 fold change (barasertib) | log2 fold change [7] | log2 fold change (volasertib) | log2 fold change [8] | log2 fold change (epoxomicin) | log2 fold change [9] | log2 fold change [10] | log2 fold change [11] | log2 fold change [12] | log2 fold change [13] | log2 fold change (rosiglitazone)
1 | NDUFA4 (UniProt O00483) | inactive: 0.046 | inactive: -0.069 | inactive: -0.003 | inactive: 0.049 | inactive: -0.033 | inactive: 0.002 | inactive: 0.018 | inactive: -0.023 | inactive: -0.099 | inactive: 0.044 | inactive: 0.033 | inactive: 0.042 | inactive: -0.019 | active: 0.369 | inactive: 0.019 | inactive: -0.039 | inactive: 0.018 | inactive: 0.101 | – | –
2 | NBAS (UniProt A2RRP1) | inactive: -0.036 | inactive: 0.004 | inactive: -0.072 | inactive: -0.119 | inactive: 0.133 | inactive: 0.054 | inactive: -0.016 | inactive: 0.085 | inactive: 0.23 | inactive: 0.004 | inactive: 0.032 | inactive: -0.366 | inactive: 0.159 | inactive: -0.13 | inactive: 0.066 | inactive: 0.044 | inactive: 0.148 | inactive: 0.011 | inactive: -0.187 | inactive: 0.05
3 | NARS2 (UniProt Q96I59) | inactive: -0.016 | inactive: 0.002 | inactive: -0.011 | inactive: 0.019 | inactive: -0.071 | inactive: -0.01 | inactive: 0.038 | inactive: -0.033 | inactive: -0.076 | inactive: 0.002 | inactive: -0.021 | inactive: -0.043 | inactive: 0.045 | inactive: 0.048 | inactive: -0.055 | inactive: 0.001 | inactive: -0.034 | inactive: -0.182 | – | –
4 | NDUFA7 (UniProt O95182) | inactive: -0.013 | inactive: 0 | inactive: -0.007 | inactive: -0.021 | inactive: -0.035 | inactive: -0.045 | inactive: 0.019 | inactive: -0.079 | inactive: -0.024 | inactive: -0.011 | inactive: -0.19 | inactive: -0.109 | inactive: -0.023 | inactive: 0.052 | inactive: 0.011 | inactive: 0.01 | inactive: 0.027 | active: -0.324 | – | –
5 | NDUFS2 (UniProt O75306) | inactive: 0.055 | inactive: -0.007 | inactive: 0.018 | inactive: 0.025 | inactive: -0.116 | inactive: 0.05 | inactive: 0.052 | inactive: -0.048 | inactive: -0.017 | inactive: -0.004 | inactive: -0.026 | inactive: -0.064 | inactive: 0.011 | inactive: 0.037 | inactive: -0.05 | inactive: 0.024 | inactive: -0.107 | inactive: -0.179 | inactive: 0.02 | inactive: 0.039
6 | NDUFS8 (UniProt O00217) | inactive: 0.02 | inactive: 0 | inactive: 0.03 | inactive: 0.018 | inactive: -0.136 | inactive: 0.02 | inactive: -0.006 | inactive: -0.092 | inactive: -0.014 | inactive: -0.004 | inactive: -0.103 | inactive: -0.097 | inactive: -0.005 | inactive: 0.039 | inactive: -0.043 | inactive: 0 | inactive: -0.069 | active: -0.41 | – | –
7 | NAA15 (UniProt Q9BXJ9) | inactive: 0.01 | inactive: 0.027 | inactive: 0.028 | inactive: 0.055 | inactive: -0.047 | inactive: 0.023 | inactive: 0.027 | inactive: 0.045 | inactive: -0.021 | inactive: 0.026 | inactive: -0.015 | inactive: -0.053 | inactive: 0.04 | inactive: 0.025 | inactive: -0.024 | inactive: 0.006 | inactive: -0.093 | inactive: -0.039 | inactive: 0.023 | inactive: 0.024
8 | NDUFV3 (UniProt P56181) | inactive: 0.039 | inactive: -0.004 | inactive: -0.045 | inactive: 0.043 | inactive: 0.012 | inactive: 0.044 | inactive: -0.072 | inactive: 0.037 | inactive: 0.001 | inactive: -0.049 | inactive: 0.008 | inactive: -0.001 | inactive: -0.014 | inactive: 0.045 | – | inactive: 0.04 | inactive: 0.135 | – | inactive: 0.021 | inactive: 0.009
9 | NAA50 (UniProt Q9GZZ1) | inactive: 0.071 | inactive: 0.001 | inactive: 0.029 | inactive: 0.091 | inactive: -0.037 | inactive: 0.03 | inactive: 0.08 | inactive: -0.028 | inactive: 0.04 | inactive: 0.005 | inactive: -0.04 | inactive: -0.013 | inactive: 0.074 | inactive: 0.025 | inactive: -0.063 | inactive: 0.016 | inactive: -0.093 | inactive: -0.007 | inactive: -0.011 | inactive: 0.023
10 | NBN (UniProt O60934) | inactive: 0.017 | inactive: -0.008 | inactive: -0.01 | inactive: 0.014 | inactive: -0.03 | inactive: 0.081 | inactive: 0.047 | inactive: 0.04 | inactive: 0.054 | inactive: 0.022 | inactive: -0.072 | active: -0.219 | inactive: 0.031 | inactive: 0.073 | inactive: 0.002 | inactive: 0.061 | inactive: -0.043 | inactive: -0.116 | – | –
11 | NEDD4 isoform 4 (UniProt P46934) | inactive: -0.069 | inactive: -0.011 | inactive: -0.025 | inactive: 0.047 | inactive: -0.04 | inactive: 0.029 | inactive: 0.026 | inactive: 0.026 | inactive: 0.018 | inactive: 0.009 | inactive: -0.102 | active: -0.521 | inactive: 0.008 | inactive: 0.008 | inactive: -0.031 | inactive: 0.015 | inactive: -0.01 | inactive: 0.049 | – | –
12 | NAA15, A0A0B4J1W3 | inactive: -0.167 | inactive: -0.021 | inactive: 0.026 | inactive: 0.014 | inactive: -0.128 | inactive: -0.068 | inactive: 0 | inactive: -0.086 | inactive: -0.012 | inactive: 0.029 | inactive: 0.096 | inactive: 0.044 | inactive: -0.048 | inactive: -0.039 | inactive: -0.099 | inactive: -0.02 | inactive: -0.073 | inactive: -0.015 | inactive: 0.014 | inactive: 0.014
13 | N4BP1 (UniProt O75113) | inactive: -0.016 | inactive: -0.01 | inactive: -0.039 | inactive: 0.042 | inactive: -0.033 | inactive: 0.043 | inactive: 0.037 | inactive: 0.071 | inactive: -0.001 | inactive: 0.069 | inactive: -0.072 | inactive: -0.177 | inactive: 0.097 | inactive: -0.286 | inactive: -0.131 | inactive: 0 | inactive: -0.02 | inactive: -0.053 | inactive: -0.022 | inactive: 0.025
14 | NCAPD2 (UniProt Q15021) | inactive: 0.057 | inactive: -0.032 | inactive: 0.012 | inactive: -0.013 | inactive: 0.058 | inactive: 0.119 | inactive: 0.041 | inactive: 0.101 | inactive: 0.077 | inactive: 0.03 | inactive: -0.131 | active: -0.486 | inactive: 0.081 | inactive: 0.019 | inactive: 0 | inactive: 0.075 | inactive: 0.044 | inactive: -0.098 | – | –
15 | NCL (UniProt P19338) | inactive: -0.017 | inactive: -0.056 | inactive: -0.077 | inactive: -0.126 | inactive: 0.275 | inactive: -0.139 | inactive: -0.036 | inactive: 0.145 | inactive: 0.085 | inactive: -0.101 | inactive: 0.167 | inactive: 0.173 | inactive: -0.011 | inactive: -0.427 | inactive: 0.336 | inactive: -0.06 | inactive: 0.393 | inactive: 0.293 | – | –
16 | NCSTN (UniProt Q92542) | inactive: 0.027 | inactive: 0.065 | inactive: -0.017 | inactive: 0.038 | inactive: -0.019 | inactive: -0.008 | inactive: 0.018 | inactive: -0.094 | inactive: 0.056 | inactive: 0.029 | inactive: 0.008 | inactive: -0.071 | inactive: -0.052 | inactive: -0.014 | inactive: -0.036 | inactive: 0.04 | inactive: -0.05 | inactive: -0.001 | inactive: -0.054 | inactive: -0.004

Reformatted tab-delimited: part of the list above
Row	Target	log2 fold change [1]	log2 fold change [2]	log2 fold change [3]	log2 fold change [4]	log2 fold change (Nexturastat A)	log2 fold change (vemurafenib)	log2 fold change [5]	log2 fold change [6]	log2 fold change (givinostat)	log2 fold change (barasertib)	log2 fold change [7]	log2 fold change (volasertib)	log2 fold change [8]	log2 fold change (epoxomicin)	log2 fold change [9]	log2 fold change [10]	log2 fold change [11]	log2 fold change [12]	log2 fold change [13]	log2 fold change (rosiglitazone)
8	NDUFV3 (UniProt P56181)	inactive: 0.039	inactive: -0.004	inactive: -0.045	inactive: 0.043	inactive: 0.012	inactive: 0.044	inactive: -0.072	inactive: 0.037	inactive: 0.001	inactive: -0.049	inactive: 0.008	inactive: -0.001	inactive: -0.014	inactive: 0.045	–	inactive: 0.04	inactive: 0.135	–	inactive: 0.021	inactive: 0.009
9	NAA50 (UniProt Q9GZZ1)	inactive: 0.071	inactive: 0.001	inactive: 0.029	inactive: 0.091	inactive: -0.037	inactive: 0.03	inactive: 0.08	inactive: -0.028	inactive: 0.04	inactive: 0.005	inactive: -0.04	inactive: -0.013	inactive: 0.074	inactive: 0.025	inactive: -0.063	inactive: 0.016	inactive: -0.093	inactive: -0.007	inactive: -0.011	inactive: 0.023
